Data as given in PubChem BioAssay AID743121 (NCATS, 2013).
In all, the deposit lists about 26,000 reagents; below is an unselected part. In the full data, 167 (0.63%) were called active. 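Calls are per gene from RSA p-values that are not deposited; an individual active-marked siRNA can sensitise only weakly.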 Entries without a mark were called inactive. The numbers tell different reagents against one gene apart. Not all columns of the deposit are shown.

Test: 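Knock-downs that sensitise breast cancer cells to camptothecin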 (primary screen)
Cells: MDA-MB-231 cells, a human breast cancer line
Reagent: single siRNA against human genes, 20 nM siRNA (0.8 pmol per well)
Timing: 120 h (drug added 48 h after transfection, read 72 h later)
Treatment: camptothecin 20 nM (about EC30) for 72 h; vehicle 0.1% DMSO in parallel plates
Measured: 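Cell viability by ATP luminescence (CellTiter-Glo) as % of non-targeting siRNA wells, and the log2 ratio of viability without drug over viability with camptothecin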
Reading the numbers: log2 vehicle/camptothecin viability: higher = stronger sensitisation to camptothecin; viability with camptothecin: higher = more viable cells
Units: viability with camptothecin in % of control
Call rule: 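Active genes have an RSA gene-level p-value below 0.001, computed from the ratios of their separate siRNAs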

ZBED1 #1 gave log2 vehicle/camptothecin viability -0.304; viability with camptothecin 97.8.
ZBED1 #2 showed log2 vehicle/camptothecin viability -0.366; viability with camptothecin 72.8.
With knock-down of ZBED1 #3, the record shows log2 vehicle/camptothecin viability -0.351; viability with camptothecin 99.4.
Depletion of ZBED1 #4 came out at: log2 vehicle/camptothecin viability -0.473; viability with camptothecin 133.
Against ADAMTS8 #1, the values are log2 vehicle/camptothecin viability 0.0942; viability with camptothecin 78.8.
For ADAMTS8 #2, the values are log2 vehicle/camptothecin viability -0.402; viability with camptothecin 81.6.
ADAMTS8 #3 scored log2 vehicle/camptothecin viability -0.139; viability with camptothecin 101.
With knock-down of GPR35 #1 the results were log2 vehicle/camptothecin viability -0.256; viability with camptothecin 29.5.
After knock-down of GPR35 #2 the results were log2 vehicle/camptothecin viability -0.401; viability with camptothecin 77.5.
Against GPR35 #3, the entry reads log2 vehicle/camptothecin viability -0.543; viability with camptothecin 62.1.
With knock-down of GPR35 #4 the results were log2 vehicle/camptothecin viability -0.373; viability with camptothecin 65.4.
With knock-down of SSH3 #1, the screen gave log2 vehicle/camptothecin viability 0.112; viability with camptothecin 41.2.
Silencing of SSH3 #2 resulted in: log2 vehicle/camptothecin viability -0.434; viability with camptothecin 62.6.
With knock-down of SSH3 #3, the record shows log2 vehicle/camptothecin viability -0.312; viability with camptothecin 50.3.
SSH3 #4 scored log2 vehicle/camptothecin viability -0.15; viability with camptothecin 77.
Against PAMR1 #1 the deposit lists log2 vehicle/camptothecin viability -0.245; viability with camptothecin 118.
Knock-down of PAMR1 #2 gave: log2 vehicle/camptothecin viability 0.286; viability with camptothecin 72.7.
Against PAMR1 #3, the values are log2 vehicle/camptothecin viability -0.303; viability with camptothecin 137.
Against PAMR1 #4 the deposit lists log2 vehicle/camptothecin viability -0.219; viability with camptothecin 81.6.
Knock-down of RAB41 #1 resulted in: log2 vehicle/camptothecin viability -0.0323; viability with camptothecin 93.1.
After knock-down of RAB41 #2, the record shows log2 vehicle/camptothecin viability 0.144; viability with camptothecin 55.
Against RAB41 #3, the values are log2 vehicle/camptothecin viability -0.117; viability with camptothecin 60.8.
For RAB41 #4, the entry reads log2 vehicle/camptothecin viability -0.2; viability with camptothecin 118.
After knock-down of AOX1 #1, the screen gave log2 vehicle/camptothecin viability -0.0962; viability with camptothecin 95.5.
Against AOX1 #2, the values are log2 vehicle/camptothecin viability -0.197; viability with camptothecin 109.
After knock-down of AOX1 #3 the results were log2 vehicle/camptothecin viability 0.0816; viability with camptothecin 62.1.
Against AOX1 #4 the deposit lists log2 vehicle/camptothecin viability -0.339; viability with camptothecin 88.9.
Silencing of SERPINI1 #1 gave: log2 vehicle/camptothecin viability 0.0744; viability with camptothecin 81.3.
With knock-down of SERPINI1 #2 the results were log2 vehicle/camptothecin viability 0.08; viability with camptothecin 104.
SERPINI1 #3 gave log2 vehicle/camptothecin viability 0.297; viability with camptothecin 16.4.
With knock-down of SERPINI1 #4, the record shows log2 vehicle/camptothecin viability 0.0035; viability with camptothecin 96.2.
After knock-down of PLP1 #1, the record shows log2 vehicle/camptothecin viability 0.00399; viability with camptothecin 40.8.
For PLP1 #2 the deposit lists log2 vehicle/camptothecin viability 0.058; viability with camptothecin 62.3.
With knock-down of PLP1 #3 the results were log2 vehicle/camptothecin viability 0.325; viability with camptothecin 51.1.
PLP1 #4 showed log2 vehicle/camptothecin viability 0.539; viability with camptothecin 23.8.

Ordered by “log2 vehicle/camptothecin viability” (lowest first): some entries from above.
GPR35 #3 — log2 vehicle/camptothecin viability: -0.543; viability with camptothecin: 62.1
GPR35 #2 — log2 vehicle/camptothecin viability: -0.401; viability with camptothecin: 77.5
GPR35 #4 — log2 vehicle/camptothecin viability: -0.373; viability with camptothecin: 65.4
GPR35 #1 — log2 vehicle/camptothecin viability: -0.256; viability with camptothecin: 29.5
SSH3 #1 — log2 vehicle/camptothecin viability: 0.112; viability with camptothecin: 41.2
